In the supplement of paper PMC7877785:
± gives the uncertainty stated by the source. Many entries were measured with a wide error.

Assay: self-splicing fitness, log relative to wild type (ln ratio); higher = more splicing; Tetrahymena group I intron in knt gene, E. coli kanamycin selection, DiMSum; sequences stand for … in CUCUCU…GGAGGGAAAAGUUAUCAGGCAUGCACCUGGUAGCUAGUCUUUAAACCAAUAGAUUGCAUCGGUUUAAAAGGCAAGACCGUCAAAUUGCGGGAAAGGGGUCAACAGCCGUUCAGUACCAAGUCUCAGGGGAAACUUUGAGAUGGCCUUGCAAAGGGUAUGGUAAUAAGCUGACGGACAUGGUCCUAACCACGCAGCCAAGUCCUAAGUCAACAGAUCUUCUGUUGAUAUGGAUGCAGUUCACAGACUAAAUGUCGGUCGGGGAAGAUGUAUUCUUCUCAUAAGAUAUAGUCGGACCUCUCCUUAAUGGGAGCUAGCGGAUGAAGUGAUGCAACACUGGAGCCGCUGGGAACUAAUUUGUAUGCGAAAGUAUAUUGAUUAGUUUUGGAGUACUCGUGGUCG
In short: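 Library with all eight P1ex-region intron nucleotides randomised, intron inside the knt kanamycin-resistance gene on pET-22b(+), in E. coli BL21(DE3). Cells grew overnight at 37°C or 30°C on LB agar with or without 25 μg/mL kanamycin (plus 100 μg/mL carbenicillin, 50 μM IPTG, 0.2% rhamnose), in six replicate transformations. Pooled colonies were amplicon-sequenced on Illumina HiSeq 2500. DiMSum fitness is the error-weighted combination of wild-type-normalised replicate fold changes, kanamycin versus none.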

UUUUAGCAAUAUUACGUGGG
self-splicing fitness (ln) (30 °C): -1.79 ± 0.2 | self-splicing fitness (ln) (37 °C): -2.27 ± 0.27

UAAGAGCAAUAUUACGACCU
self-splicing fitness (ln) (37 °C): -2.13 ± 0.58

CGUCAGCAAUAUUACGCCAC
self-splicing fitness (ln) (30 °C): -4.53 ± 0.51

UCUUAGCAAUAUUACGGUAG
self-splicing fitness (ln) (30 °C): -4.12 ± 1

GAUUAGCAAUAUUACGAAAA
self-splicing fitness (ln) (30 °C): -0.952 ± 0.69 | self-splicing fitness (ln) (37 °C): -1.65 ± 0.67

AUCUAGCAAUAUUACGCCAA
self-splicing fitness (ln) (30 °C): -2.58 ± 0.61

CGGGAGCAAUAUUACGGUGA
self-splicing fitness (ln) (37 °C): -1.92 ± 0.56

UCAGAGCAAUAUUACGGCAC
self-splicing fitness (ln) (30 °C): -4.65 ± 1

AUCUAGCAAUAUUACGAGGC
self-splicing fitness (ln) (30 °C): -4.65 ± 0.52

UCGGAGCAAUAUUACGAUUU
self-splicing fitness (ln) (30 °C): -2.74 ± 0.56 | self-splicing fitness (ln) (37 °C): -0.595 ± 1.4

CUCUAGCAAUAUUACGGUGC
self-splicing fitness (ln) (37 °C): -3.45 ± 0.72

UAAUAGCAAUAUUACGAGCC
self-splicing fitness (ln) (30 °C): -3.52 ± 0.75

GUAGAGCAAUAUUACGAGAG
self-splicing fitness (ln) (30 °C): -3.5 ± 0.73

ACGGAGCAAUAUUACGCAGC
self-splicing fitness (ln) (37 °C): -3.59 ± 0.73

UCCGAGCAAUAUUACGCGGA
self-splicing fitness (ln) (37 °C): -2.54 ± 0.76

UAAUAGCAAUAUUACGAAGA
self-splicing fitness (ln) (30 °C): -3.15 ± 0.53

CCCAAGCAAUAUUACGGACC
self-splicing fitness (ln) (30 °C): -2.96 ± 0.18 | self-splicing fitness (ln) (37 °C): -2.29 ± 0.26

UGGAAGCAAUAUUACGCGAC
self-splicing fitness (ln) (37 °C): -4.42 ± 1

UUGUAGCAAUAUUACGGGGG
self-splicing fitness (ln) (37 °C): -1.94 ± 0.79

GCGAAGCAAUAUUACGCUGC
self-splicing fitness (ln) (30 °C): -3.42 ± 1 | self-splicing fitness (ln) (37 °C): -2.74 ± 1.1

UUAGAGCAAUAUUACGCGUC
self-splicing fitness (ln) (37 °C): -3.1 ± 0.61

UUUGAGCAAUAUUACGAAUC
self-splicing fitness (ln) (30 °C): -3.75 ± 1 | self-splicing fitness (ln) (37 °C): -1.77 ± 0.59

UCAAAGCAAUAUUACGAACU
self-splicing fitness (ln) (30 °C): -3.14 ± 0.19 | self-splicing fitness (ln) (37 °C): -1.97 ± 0.23

ACUGAGCAAUAUUACGUCUA
self-splicing fitness (ln) (30 °C): -3.82 ± 0.61

GUUUAGCAAUAUUACGAGUA
self-splicing fitness (ln) (30 °C): -3.19 ± 0.53 | self-splicing fitness (ln) (37 °C): -3.24 ± 0.6

UCGAAGCAAUAUUACGAGCA
self-splicing fitness (ln) (30 °C): -1.77 ± 0.14 | self-splicing fitness (ln) (37 °C): 0.162 ± 0.14

AUUGAGCAAUAUUACGCUGU
self-splicing fitness (ln) (30 °C): -1.97 ± 0.25 | self-splicing fitness (ln) (37 °C): -1.22 ± 0.5

CUGAAGCAAUAUUACGAUCU
self-splicing fitness (ln) (30 °C): -3.3 ± 0.16 | self-splicing fitness (ln) (37 °C): -3.2 ± 0.28

GUGUAGCAAUAUUACGGUUG
self-splicing fitness (ln) (30 °C): -2.88 ± 0.14 | self-splicing fitness (ln) (37 °C): -2.61 ± 0.16

CCGUAGCAAUAUUACGAGCC
self-splicing fitness (ln) (30 °C): -3.71 ± 0.6

UUGGAGCAAUAUUACGAAUC
self-splicing fitness (ln) (30 °C): -4.03 ± 0.52

UUGGAGCAAUAUUACGAAAA
self-splicing fitness (ln) (30 °C): -1.74 ± 0.84

AGUUAGCAAUAUUACGCAAA
self-splicing fitness (ln) (30 °C): -3.12 ± 0.52

CUUUAGCAAUAUUACGCAUA
self-splicing fitness (ln) (37 °C): -2.97 ± 0.53

CUGAAGCAAUAUUACGGUGC
self-splicing fitness (ln) (37 °C): -2.6 ± 0.62

AAUUAGCAAUAUUACGAAAC
self-splicing fitness (ln) (30 °C): -2.42 ± 0.55

ACAGAGCAAUAUUACGAGAA
self-splicing fitness (ln) (37 °C): -1.76 ± 0.83

AUCGAGCAAUAUUACGUACC
self-splicing fitness (ln) (30 °C): -3.76 ± 0.35 | self-splicing fitness (ln) (37 °C): -1.53 ± 0.34

UGAGAGCAAUAUUACGAGAU
self-splicing fitness (ln) (30 °C): -2.99 ± 0.66 | self-splicing fitness (ln) (37 °C): -1.53 ± 0.69

UGUCAGCAAUAUUACGACAC
self-splicing fitness (ln) (37 °C): -1 ± 0.65

ACCCAGCAAUAUUACGACGA
self-splicing fitness (ln) (30 °C): -0.509 ± 0.084 | self-splicing fitness (ln) (37 °C): -0.36 ± 0.086

UCGAAGCAAUAUUACGCCGG
self-splicing fitness (ln) (30 °C): -2.32 ± 0.13 | self-splicing fitness (ln) (37 °C): -2.18 ± 0.19

AGUAAGCAAUAUUACGGUCG
self-splicing fitness (ln) (30 °C): -1.95 ± 0.083 | self-splicing fitness (ln) (37 °C): -0.559 ± 0.087

CUCGAGCAAUAUUACGAGAA
self-splicing fitness (ln) (30 °C): -2.11 ± 0.67 | self-splicing fitness (ln) (37 °C): -2.92 ± 1

AGGAAGCAAUAUUACGCCAG
self-splicing fitness (ln) (30 °C): -2.89 ± 0.18 | self-splicing fitness (ln) (37 °C): -1.81 ± 0.22

CUUUAGCAAUAUUACGGAAA
self-splicing fitness (ln) (30 °C): -3.35 ± 1

ACUGAGCAAUAUUACGACUA
self-splicing fitness (ln) (30 °C): -2.58 ± 0.65 | self-splicing fitness (ln) (37 °C): -1.73 ± 0.61

CAUGAGCAAUAUUACGAAGC
self-splicing fitness (ln) (30 °C): -3.46 ± 1.1
